Experimental data: PubChem BioAssay AID652272 (Drosophila RNAi Screening Center, 2013)
Screen: 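Genes whose knock-down decreases or increases Hedgehog reporter output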 (primary screen). Cells: Drosophila clone 8 (Cl8) cells. Reagents: long dsRNA against Drosophila genes. Detection: 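Firefly light from a Hedgehog-responsive ptc promoter reporter and Renilla reference light, both read on a plate reader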. Scale: firefly Hh reporter signal: higher = more ptc reporter light; Renilla reference signal: higher = more Renilla control light. Rule for the call: 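Called a hit if the two-replicate mean z-score lies below -2 or above +3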. Calls: active = hit: reporter lowered or raised; inactive = not a hit.
The screen tested about 21,000 reagents; this is a random part of those with a known target gene and a result. In the full data, 503 (2.4%) are marked active. 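Raw plate light values, not normalised; calls rest on replicate z-scores that were not deposited; hits include reporter decreases as well as increases.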 Reagent sequences are not shown. Not stated in the record: the amount of reagent, the time to read-out.

| gene knocked down | DRSC id | firefly Hh reporter signal, replicate 1 | firefly Hh reporter signal, replicate 2 | firefly Hh reporter signal, replicate 3 | Renilla reference signal, replicate 1 | Renilla reference signal, replicate 2 | Outcome |
| --- | --- | --- | --- | --- | --- | --- | --- |
| blot (bloated tubules) | DRSC09485 | 3.08e5 | – | – | 7120 | – | inactive |
| blot (bloated tubules) | DRSC11328 | 74294 | 45500 | – | 3194 | 2141 | inactive |
| croc (crocodile) | DRSC11884 | 1.41e5 | 1.38e5 | – | 4632 | 3658 | inactive |
| gkt (glaikit) | DRSC00821 | 1.20e5 | 61104 | – | 3088 | 6733 | inactive |
| Ocrl (Oculocerebrorenal syndrome of Lowe) | DRSC18576 | 1.42e5 | 1.04e5 | – | 3572 | 3424 | inactive |
| CG15387 | DRSC00401 | 1.01e5 | 79152 | – | 2520 | 1812 | inactive |
| CG7080 | DRSC16193 | 94912 | 66769 | – | 4074 | 2807 | inactive |
| NaPi-T (Na[+]-dependent inorganic phosphate cotransporter) | DRSC07476 | 1.03e5 | 61990 | – | 2480 | 4523 | inactive |
| CG7246 | DRSC18422 | 4.13e5 | 82778 | – | 4341 | 4341 | inactive |
| CG5555 | DRSC15834 | 1.28e5 | 57616 | – | 5692 | 2377 | inactive |
| Ser6 (Serine protease 6) | DRSC20574 | 1.50e5 | 2.40e5 | – | 5923 | 10786 | inactive |
| CG3902 | DRSC10387 | 89509 | 1.38e5 | – | 2819 | 3680 | inactive |
| DCTN6-p27 (Dynactin 6, p27 subunit) | DRSC02609 | 1.21e5 | 4.65e5 | 73568 | 2841 | 26864 | inactive |
| cold (coiled) | DRSC00538 | 1.07e5 | 1.27e5 | – | 4832 | 5417 | inactive |
| BomT3 (Bomanin Tailed 3) | DRSC13537 | 50581 | 2.22e5 | – | 11043 | 4768 | inactive |
| BomT3 (Bomanin Tailed 3) | DRSC15871 | 4.88e5 | 1.77e5 | – | 28032 | 12887 | inactive |
| Gar1 (Gar1 ribonucleoprotein) | DRSC04441 | 1.26e5 | 46461 | – | 3069 | 3766 | inactive |
| CG5787 | DRSC02895 | 95762 | 48385 | – | 3547 | 2130 | inactive |
| CG13337 | DRSC06371 | 1.02e5 | 61427 | – | 2645 | 4931 | inactive |
| nrv2 (nervana 2) | DRSC00948 | 4.31e5 | 1.22e5 | – | 21360 | 5237 | inactive |
| nrv2 (nervana 2) | DRSC03383 | 86132 | 80493 | – | 4220 | 3456 | inactive |
| CG3294 | DRSC00590 | 61456 | 47898 | – | 2353 | 1977 | inactive |
| MESK2 (Misexpression suppressor of KSR 2) | DRSC04258 | 67859 | 66646 | – | 1990 | 5957 | inactive |
| fl(2)d (female lethal d) | DRSC07620 | 74693 | 53923 | – | 1926 | 4013 | inactive |
| CG18810 | DRSC02701 | 73955 | 57227 | – | 1833 | 5169 | inactive |
| Tsp42Ej (Tetraspanin 42Ej) | DRSC06113 | 63113 | 33682 | – | 2640 | 1329 | inactive |
| CheA87a (Chemosensory protein A 87a) | DRSC14839 | 99292 | 95680 | – | 2656 | 2322 | inactive |
| CG5721 | DRSC06945 | 1.11e5 | 71184 | – | 5474 | 2829 | inactive |
| or (orange) | DRSC04329 | 91722 | 53480 | – | 2640 | 4891 | inactive |
| CG7011 | DRSC09347 | 3.06e5 | – | – | 7078 | – | inactive |
| Cpr64Ab (Cuticular protein 64Ab) | DRSC08461 | 76099 | 52418 | – | 2490 | 3840 | inactive |
| CG18223 | DRSC10306 | 84214 | 1.55e5 | – | 2384 | 4048 | inactive |
| CG5151 | DRSC10487 | 59178 | – | – | 2295 | 1974 | inactive |
| Med (Medea) | DRSC16737 | 80243 | 54576 | – | 3025 | 3076 | inactive |
| Cpr67B (Cuticular protein 67B) | DRSC10373 | 1.54e5 | 81291 | – | 5643 | 3674 | inactive |
| Fum1 (Fumarase 1) | DRSC18344 | 1.38e5 | 1.15e5 | – | 2906 | 2379 | inactive |

8 of these entries, reformatted:
gene knocked down	DRSC id	firefly Hh reporter signal, replicate 1	firefly Hh reporter signal, replicate 2	firefly Hh reporter signal, replicate 3	Renilla reference signal, replicate 1	Renilla reference signal, replicate 2	Outcome
CG7080	DRSC16193	94912	66769		4074	2807	inactive
NaPi-T (Na[+]-dependent inorganic phosphate cotransporter)	DRSC07476	1.03e5	61990		2480	4523	inactive
CG7246	DRSC18422	4.13e5	82778		4341	4341	inactive
CG5555	DRSC15834	1.28e5	57616		5692	2377	inactive
Ser6 (Serine protease 6)	DRSC20574	1.50e5	2.40e5		5923	10786	inactive
CG3902	DRSC10387	89509	1.38e5		2819	3680	inactive
DCTN6-p27 (Dynactin 6, p27 subunit)	DRSC02609	1.21e5	4.65e5	73568	2841	26864	inactive
cold (coiled)	DRSC00538	1.07e5	1.27e5		4832	5417	inactive

Next records:
| gene knocked down | DRSC id | firefly Hh reporter signal, replicate 1 | firefly Hh reporter signal, replicate 2 | firefly Hh reporter signal, replicate 3 | Renilla reference signal, replicate 1 | Renilla reference signal, replicate 2 | Outcome |
| --- | --- | --- | --- | --- | --- | --- | --- |
| CG8260 | DRSC20098 | 66483 | 1.64e5 | – | 2875 | 6848 | inactive |
| TRAM | DRSC18178 | 1.16e5 | 2.63e5 | – | 4810 | 10187 | inactive |
| TRAM | DRSC18651 | 78644 | 1.42e5 | – | 3370 | 5689 | inactive |
| CG17944 | DRSC12572 | 1.03e5 | 1.26e5 | – | 4296 | 3751 | inactive |
| CG30274 | DRSC04171 | 92308 | 55090 | – | 1932 | 5062 | inactive |
| CG12477 | DRSC09886 | 1.16e5 | – | – | 134 | 2647 | inactive |
| dysf (dysfusion) | DRSC14529 | 6.22e5 | 1.42e5 | – | 29561 | 4118 | inactive |
| dysf (dysfusion) | DRSC14895 | 5.55e5 | 1.17e5 | – | 26322 | 3479 | inactive |
| dysf (dysfusion) | DRSC14896 | 5.23e5 | 1.25e5 | – | 26832 | 3994 | inactive |
| dysf (dysfusion) | DRSC14897 | 2.15e5 | 44716 | – | 15612 | 1961 | active |
| CG31262 | DRSC13216 | 39731 | 2.70e5 | – | 793 | 4972 | inactive |
| ND-ASHI (NADH dehydrogenase (ubiquinone) ASHI subunit) | DRSC18291 | 1.05e5 | 3.62e5 | – | 3981 | 12695 | inactive |
| CG11562 | DRSC00316 | 1.10e5 | 90544 | – | 2856 | 2178 | inactive |
| CG34396 | DRSC04245 | 1.38e5 | 68124 | – | 3515 | 7124 | inactive |
| CG34396 | DRSC04246 | 85361 | 61931 | – | 2073 | 4470 | inactive |
| CG6136 | DRSC15975 | 1.50e5 | 90189 | – | 5652 | 1728 | inactive |
| BicD (Bicaudal D) | DRSC02006 | 71600 | 54871 | – | 2937 | 1994 | inactive |
| CG13562 | DRSC04200 | 85172 | 79312 | – | 2310 | 6374 | inactive |
| sprt (sprite) | DRSC07323 | 77120 | 52528 | – | 3626 | 2389 | inactive |
| Rpp14b (Ribonuclease P/MRP subunit p14 b) | DRSC15063 | 1.11e5 | 78827 | – | 4275 | 1717 | inactive |
| CG14204 | DRSC19559 | 90183 | 1.56e5 | – | 4066 | 8506 | inactive |
